Source: PubChem BioAssay AID1224827 (NIAID, 2016)
Assay: 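Retest primary hits on a TNF reporter with six siRNAs per gene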 (follow-up of hits). Cells: RAW264.7 G9 mouse macrophage reporter clone. Reagent: single siRNA against mouse genes, 100 nM siRNA. Time to read-out: siRNA for 2 days, then LPS about 16 h. Treatment: bacterial lipopolysaccharide (LPS), 10 ng/ml, cells fixed after overnight (about 16 h) stimulation. Detection: 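Imaged nuclear TNF reporter intensity, background removed, scaled per plate and to non-targeting control wells, as z-scores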. Scale: TNF reporter z-score, mean and TNF reporter z-score: higher = stronger Tnf promoter reporter signal; gene median z, three same-vendor siRNAs: higher = stronger Tnf reporter signal for the gene. Hit rule: 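Active siRNA: replicate-mean z-score of 2 or more, or -2 or less; no calls for control wells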.
This is one part, drawn at random, of about 3,800 reagents tested. About 2,200 of all reagents (57%) were called active. 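Active means a strong reporter change in either direction; calls are per siRNA, not per gene; qiagen siRNAs gave weaker effects.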 Reagents against one gene are numbered here.

gene | siRNA no. | TNF reporter z-score, mean | gene median z, three same-vendor siRNAs | TNF reporter z-score, repeat 1 | TNF reporter z-score, repeat 2 | activity call
Inka2 | 1 | -0.814 | -4.5 | -1.6 | -0.0289 | inactive
Inka2 | 2 | -4.5 | -4.5 | -4.65 | -4.34 | active
Inka2 | 3 | -5.95 | -4.5 | -5.66 | -6.25 | active
Inka2 | 4 | 4.44 | 0.549 | 8.14 | 0.75 | active
Inka2 | 5 | -0.0428 | 0.549 | 0.347 | -0.433 | inactive
Inka2 | 6 | 0.0429 | 0.549 | 1.65 | -1.56 | inactive
Vps35 | 1 | -2.06 | -2.9 | -2.91 | -1.2 | active
Vps35 | 2 | -2.74 | -2.9 | -2.09 | -3.38 | active
Vps35 | 3 | -3.04 | -2.9 | -3.21 | -2.88 | active
Vps35 | 4 | 3.34 | -0.134 | 5.75 | 0.937 | active
Vps35 | 5 | -0.103 | -0.134 | 0.999 | -1.2 | inactive
Vps35 | 6 | -2.83 | -0.134 | -4 | -1.65 | active
Atp1b1 | 1 | -2.05 | -2.99 | -2.79 | -1.3 | active
Atp1b1 | 2 | -2.1 | -2.99 | -3.19 | -1 | active
Atp1b1 | 3 | -4.81 | -2.99 | -5.32 | -4.3 | active
Atp1b1 | 4 | 0.661 | 0.0134 | 0.937 | 0.384 | inactive
Atp1b1 | 5 | 0.193 | 0.0134 | 0.744 | -0.357 | inactive
Atp1b1 | 6 | -1.81 | 0.0134 | -1.38 | -2.25 | inactive
Cmss1 | 1 | 0.332 | -3.43 | 1.27 | -0.605 | inactive
Cmss1 | 2 | -3.69 | -3.43 | -3.87 | -3.5 | active
Cmss1 | 3 | -4.01 | -3.43 | -4.66 | -3.36 | active
Cmss1 | 4 | 1.27 | -0.104 | 2.15 | 0.38 | inactive
Cmss1 | 5 | 0.342 | -0.104 | 1.27 | -0.589 | inactive
Cmss1 | 6 | -2.29 | -0.104 | -2.14 | -2.44 | active
Nab1 | 1 | -0.406 | -1.51 | -1.21 | 0.394 | inactive
Nab1 | 2 | -1.66 | -1.51 | -2.76 | -0.557 | inactive
Nab1 | 3 | -2.87 | -1.51 | -3.94 | -1.81 | active
Nab1 | 4 | -0.757 | -1.59 | 0.447 | -1.96 | inactive
Nab1 | 5 | -1.75 | -1.59 | -2.27 | -1.22 | inactive
Nab1 | 6 | -1.46 | -1.59 | -0.924 | -1.99 | inactive
Lrrn4 | 1 | -1.15 | -3.79 | -1.82 | -0.483 | inactive
Lrrn4 | 2 | -3.85 | -3.79 | -4.73 | -2.97 | active
Lrrn4 | 3 | -4.68 | -3.79 | -4.61 | -4.74 | active
Lrrn4 | 4 | 2.12 | -0.434 | 4.48 | -0.241 | active
Lrrn4 | 5 | 0.693 | -0.434 | 2.08 | -0.698 | inactive
Lrrn4 | 6 | -0.96 | -0.434 | -0.626 | -1.29 | inactive
Rps4l | 1 | -0.876 | -2.01 | -2.16 | 0.403 | inactive
Rps4l | 2 | -1.56 | -2.01 | -2.63 | -0.491 | inactive
Rps4l | 3 | -2.59 | -2.01 | -1.86 | -3.32 | active
Rps4l | 4 | -0.0138 | -1.13 | 0.0785 | -0.106 | inactive
Rps4l | 5 | -1.14 | -1.13 | -0.436 | -1.84 | inactive
Rps4l | 6 | -3.05 | -1.13 | -1.82 | -4.27 | active
Tnfrsf25 | 1 | 1.81 | -2.58 | 3.43 | 0.183 | inactive
Tnfrsf25 | 2 | -2.58 | -2.58 | -2.84 | -2.33 | active
Tnfrsf25 | 3 | -4.62 | -2.58 | -4.67 | -4.56 | active
Tnfrsf25 | 4 | 4.59 | 0.00604 | 8.43 | 0.752 | active
Tnfrsf25 | 5 | 1.64 | 0.00604 | 4.02 | -0.74 | inactive
Tnfrsf25 | 6 | -2.56 | 0.00604 | -2.73 | -2.4 | active
Polr1a | 1 | -2.59 | -3.26 | -2.12 | -3.06 | active
Polr1a | 2 | -2.94 | -3.26 | -3.45 | -2.42 | active
Polr1a | 3 | -4.64 | -3.26 | -4.73 | -4.55 | active
Polr1a | 4 | 1.23 | -0.618 | 3.16 | -0.711 | inactive
Polr1a | 5 | -0.356 | -0.618 | -0.186 | -0.525 | inactive
Polr1a | 6 | -1.83 | -0.618 | -2.5 | -1.16 | inactive
Psme3 | 1 | -1.22 | -1.98 | -1.55 | -0.888 | inactive
Psme3 | 2 | -1.98 | -1.98 | -1.85 | -2.11 | inactive
Psme3 | 3 | -3.71 | -1.98 | -4.08 | -3.33 | active
Psme3 | 4 | 3.05 | 1.18 | 4.64 | 1.47 | active
Psme3 | 5 | 0.58 | 1.18 | 1.1 | 0.0656 | inactive
Psme3 | 6 | -0.0102 | 1.18 | 1.27 | -1.29 | inactive
Ier5 | 1 | 0.969 | -1.95 | 1.01 | 0.925 | inactive
Ier5 | 2 | -1.99 | -1.95 | -1.96 | -2.01 | inactive
Ier5 | 3 | -2.73 | -1.95 | -3.52 | -1.94 | active
Eif6 | 1 | 3.83 | -1.73 | 2.24 | 5.41 | active
Eif6 | 2 | -1.73 | -1.73 | -1.88 | -1.58 | inactive
Eif6 | 3 | -3.14 | -1.73 | -3.31 | -2.97 | active
Brpf1 | 1 | 4.92 | -1.99 | 2.39 | 7.46 | active
Brpf1 | 2 | -1.99 | -1.99 | -1.47 | -2.52 | inactive
Brpf1 | 3 | -4.89 | -1.99 | -4.76 | -5.01 | active
Brpf1 | 4 | -0.131 | -2.42 | 1.97 | -2.23 | inactive
Brpf1 | 5 | -2.42 | -2.42 | -2.36 | -2.48 | active
Brpf1 | 6 | -3.39 | -2.42 | -3.78 | -3 | active
Inppl1 | 1 | -2.15 | -3.08 | -2.37 | -1.94 | active
Inppl1 | 2 | -3.08 | -3.08 | -3.51 | -2.65 | active
Inppl1 | 3 | -4.73 | -3.08 | -5.12 | -4.34 | active
Inppl1 | 4 | 5.67 | 2.01 | 8.7 | 2.63 | active
Inppl1 | 5 | 4.22 | 2.01 | 7.05 | 1.39 | active
Inppl1 | 6 | 0.641 | 2.01 | 0.48 | 0.802 | inactive

A stretch from the list above:
gene | siRNA no. | TNF reporter z-score, mean | gene median z, three same-vendor siRNAs | TNF reporter z-score, repeat 1 | TNF reporter z-score, repeat 2 | activity call
Cmss1 | 4 | 1.27 | -0.104 | 2.15 | 0.38 | inactive
Cmss1 | 5 | 0.342 | -0.104 | 1.27 | -0.589 | inactive
Cmss1 | 6 | -2.29 | -0.104 | -2.14 | -2.44 | active
Nab1 | 1 | -0.406 | -1.51 | -1.21 | 0.394 | inactive
Nab1 | 2 | -1.66 | -1.51 | -2.76 | -0.557 | inactive
